Assay results reported in PubChem BioAssay AID272 (DTP/NCI, 2004).
The list is a part of this screen's results and no random one: it is rich in T/C values a quarter to a half above the control, in often repeated tests (any T/C) and in doses without a T/C. Further doses and runs are listed elsewhere. T/C gives the treated animals as a percentage of the vehicle group. Some entries give survivors of the animals treated and no T/C: the source holds a T/C of zero for them, seemingly a mark for toxic or unscored doses. Some doses without a T/C left all or most animals alive at the check, yet need not have been tolerated: the source hardly ever lists a survival T/C far under the control, and the zero likely stands for such cases as well. Survivors were counted at the toxicity check, usually on the fifth day, unless a day is given; later deaths do not show. Schedules are NCI's codes, read here as Q, the interval in days (D) or hours (H), X, the number of doses. Where survival is the endpoint, this PubChem deposit counts one and a half times the control or more as active, and values a quarter to a half above the control carry no call in these data; other NCI protocols may use other cut-offs. Some T/C values carry the count of animals alive at the toxicity check (mostly the fifth day); without a count, all were alive then.

Tested on: Lewis lung carcinoma i.m., BDF1 mice, T/C %
Assay: NCI In Vivo Anticancer Drug Screen. Data for tumor model Lewis Lung Carcinoma (intramuscular) in B6D2F1 (BDF1) mice
Conditions: schedule: Q01DX011 (ip)
How it was run: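 Antitumour activity is assessed in transplanted-tumour mice. Endpoint is survival or tumour size, normalised to vehicle-dosed controls (T/C).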

[1] = T/C endpoint: median survival time, dose: 20.0 mg/kg/injection, vehicle: saline, higher T/C = longer survival
[2] = T/C endpoint: median survival time, dose: 200.0 mg/kg/injection, vehicle: saline, higher T/C = longer survival
[3] = T/C endpoint: median survival time, dose: 400.0 mg/kg/injection, vehicle: saline, higher T/C = longer survival

For Cc1cc(N(CCCl)CCCl)ccc1CN1CCCN(Cc2ccc(N(CCCl)CCCl)cc2C)C1c1ccccc1O, the survivor count (T/C endpoint: mean tumor weight, dose: 100.0 mg/kg/injection, vehicle: saline with Tween-80, higher T/C = larger tumour) was 4 of 8, the survivor count (T/C endpoint: mean tumor weight, dose: 200.0 mg/kg/injection, vehicle: saline with Tween-80, higher T/C = larger tumour) was 4 of 8 and the survivor count (T/C endpoint: mean tumor weight, dose: 400.0 mg/kg/injection, vehicle: saline with Tween-80, higher T/C = larger tumour) was 1 of 8. The survivor count (T/C endpoint: median survival time, dose: 100.0 mg/kg/injection, vehicle: saline with Tween-80, higher T/C = longer survival) was 4 of 8, the survivor count (T/C endpoint: median survival time, dose: 200.0 mg/kg/injection, vehicle: saline with Tween-80, higher T/C = longer survival) was 4 of 8 and the survivor count (T/C endpoint: median survival time, dose: 400.0 mg/kg/injection, vehicle: saline with Tween-80, higher T/C = longer survival) was 1 of 8.

With COC1N(C2CC(O)C(CO)O2)C(=O)NC(=O)C1(F)Br (configuration not stated) the T/C (T/C endpoint: median survival time, dose: 10.0 mg/kg/injection, vehicle: saline, higher T/C = longer survival) was 128 % of control [7 of 8 alive], the survivor count [1] was 6 of 8 and the survivor count (T/C endpoint: median survival time, dose: 40.0 mg/kg/injection, vehicle: saline, higher T/C = longer survival) was 1 of 8. For the same compound, the survivor count (T/C endpoint: median survival time, dose: 80.0 mg/kg/injection, vehicle: saline, higher T/C = longer survival) was 0 of 8.

C[N+](C)(C)c1cc2c(nn1)Nc1ccccc1S2 was tested, and the survivor count (T/C endpoint: median survival time, dose: 8.5 mg/kg/injection, vehicle: saline with Tween-80, higher T/C = longer survival) was 0 of 8, the survivor count (T/C endpoint: median survival time, dose: 17.0 mg/kg/injection, vehicle: saline with Tween-80, higher T/C = longer survival) was 0 of 8 and the survivor count (T/C endpoint: median survival time, dose: 34.0 mg/kg/injection, vehicle: saline with Tween-80, higher T/C = longer survival) was 0 of 8. The survivor count (T/C endpoint: median survival time, dose: 68.0 mg/kg/injection, vehicle: saline with Tween-80, higher T/C = longer survival) was 0 of 8.

For CC(=O)OC1C(=O)C(O)C(C)OC1O[C@@H]1C[C@@]2(C)[C@@H]3CC=C4[C@@H](C[C@H](O)C(=O)C4(C)C)[C@]3(C)C(=O)C[C@]2(C)[C@H]1[C@@](C)(O)C(=O)/C=C/C(C)(C)O (some centres not stated), the survivor count (T/C endpoint: mean tumor weight, dose: 4.0 mg/kg/injection, vehicle: saline, higher T/C = larger tumour) was 1 of 8 and the survivor count (T/C endpoint: median survival time, dose: 4.0 mg/kg/injection, vehicle: saline, higher T/C = longer survival) was 1 of 8.

CN(Cc1ccccc1)/N=N/c1nc[nH]c1C(N)=O was tested, and the survivor count (T/C endpoint: mean tumor weight, dose: 100.0 mg/kg/injection, vehicle: saline, higher T/C = larger tumour) was 5 of 8, the survivor count (T/C endpoint: median survival time, dose: 100.0 mg/kg/injection, vehicle: saline, higher T/C = longer survival) was 5 of 8 and the survivor count [2] was 0 of 8. For the same compound, the survivor count [3] was 0 of 8.

With Cc1c2c(ccc3ccccc32)c[n+]2ccccc12 the survivor count [1] was 0 of 8.

Clc1ccc2nc(CBr)cnc2c1 was tested, and the survivor count (T/C endpoint: mean tumor weight (est.), dose: 50.0 mg/kg/injection, vehicle: saline with Tween-80, higher T/C = larger tumour) was 4 of 8 and the survivor count (T/C endpoint: median survival time, dose: 50.0 mg/kg/injection, vehicle: saline with Tween-80, higher T/C = longer survival) was 4 of 8.

With Oc1ccc(I)c2cccnc12 the survivor count (T/C endpoint: mean tumor weight (est.), dose: 200.0 mg/kg/injection, vehicle: saline, higher T/C = larger tumour) was 3 of 8, the survivor count [2] was 3 of 8 and the survivor count [3] was 0 of 8. The survivor count (T/C endpoint: median survival time, dose: 800.0 mg/kg/injection, vehicle: saline, higher T/C = longer survival) was 0 of 8.
